Patent publication US20220206013A1, “CYSTIC FIBROSIS URINE TEST” (Aarhus Universitet, priority 2019, published 2022)

System: Pendrin WT and KO mice
Experiment: Secretin-induced urine alkalisation and urine HCO3− excretion in anaesthetized pendrin WT/KO mice
Format: in vivo, mouse
Conditions: 10 μg/25 g BW i.p.
Experimental: Induction of anaesthesia was performed with i.p. injection of […] of a ketamine-xylazine mix (10 mg/ml and 1 mg/ml). An i.v. access was obtained by cannulation of one tail vein and the animals were kept in anaesthesia by a continuous rate infusion (CRI) corresponding to half of the induction dose pr. hour. Mice were infused with a solution containing 145 mM NaCl at pH 7.4 with a perfusion rate of 0.1 ml h^−1 via a syringe pump (Model 33 Twin syringe pump, Harvard Apparatus, USA).
Bladder catheterization was introduced and urine was collected every 5 minutes. Urinary pH was measured continuously throughout the experiment by placement of a micro pH electrode (pH-200, Unisense, Aarhus, DK) in the outflow of the catheter and the reference electrode was placed into the suprapubic operation wound (see FIG. 7A). Following a 30-min. control period, mice were injected intraperitoneally with either secretin (10 μg/25 g BW) or saline.
The urine was collected and pooled for 30 minutes allowing measurement of mean [HCO3^−] in the time periods 0-30, 30-60 and 60-90 after starting the experiment. In experiments with too low urine output, urine was pooled to allow analysis of [HCO3^−] before and after secretin application. Measurements were performed by a Corning 960 analyser (Savory et al. 1978) and calibrated to small volume samples of 50 μl or alternatively by a custom built infrared CO2-sensor based system for smaller volume samples (Trepiccione et al. 2017) (10-40 μl).
All values are presented as mean values ±standard error of mean (SEM). Due to a low number of observations in each series, n=7 in most, we were not able to determine whether the data followed a Gaussian distribution. Therefore, two-tailed Wilcoxon matched pairs signed rank test, in paired data, and two-tailed Mann-Whitney test, in unpaired data, were performed to test for significance.

In the case of secretin, the “time of maximal urine alkalisation after secretin application” value (WT mice) is reported as 20 to 30 min, the “lag time to urinary alkalization” value (pendrin WT mice) is reported as “approximately 5 minutes” and the “time to peak mean alkalisation” value (pendrin WT mice) is reported as ~25 min.
